Data published in paper PMC7294942.
These are yes or no findings as the source states them, for the method shown. Binding seen in cells or lysates may run through a third protein. A yes stands for co-enrichment or nearness to the bait. Other partners may have been found.

By UniProt entry, the sequences of proteins in these tests, tags left out.
UniProt P01106: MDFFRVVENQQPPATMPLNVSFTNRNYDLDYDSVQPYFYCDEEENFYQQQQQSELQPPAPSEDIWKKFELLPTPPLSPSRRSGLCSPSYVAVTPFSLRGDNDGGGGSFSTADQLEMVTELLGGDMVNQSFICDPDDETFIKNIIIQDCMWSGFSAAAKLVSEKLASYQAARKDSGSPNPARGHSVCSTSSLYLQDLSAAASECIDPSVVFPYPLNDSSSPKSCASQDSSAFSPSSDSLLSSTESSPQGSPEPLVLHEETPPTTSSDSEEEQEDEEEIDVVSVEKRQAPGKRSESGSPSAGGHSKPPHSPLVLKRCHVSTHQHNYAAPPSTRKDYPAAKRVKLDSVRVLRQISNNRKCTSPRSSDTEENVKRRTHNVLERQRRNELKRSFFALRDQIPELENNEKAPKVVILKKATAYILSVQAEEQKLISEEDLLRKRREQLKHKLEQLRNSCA
UniProt Q92831: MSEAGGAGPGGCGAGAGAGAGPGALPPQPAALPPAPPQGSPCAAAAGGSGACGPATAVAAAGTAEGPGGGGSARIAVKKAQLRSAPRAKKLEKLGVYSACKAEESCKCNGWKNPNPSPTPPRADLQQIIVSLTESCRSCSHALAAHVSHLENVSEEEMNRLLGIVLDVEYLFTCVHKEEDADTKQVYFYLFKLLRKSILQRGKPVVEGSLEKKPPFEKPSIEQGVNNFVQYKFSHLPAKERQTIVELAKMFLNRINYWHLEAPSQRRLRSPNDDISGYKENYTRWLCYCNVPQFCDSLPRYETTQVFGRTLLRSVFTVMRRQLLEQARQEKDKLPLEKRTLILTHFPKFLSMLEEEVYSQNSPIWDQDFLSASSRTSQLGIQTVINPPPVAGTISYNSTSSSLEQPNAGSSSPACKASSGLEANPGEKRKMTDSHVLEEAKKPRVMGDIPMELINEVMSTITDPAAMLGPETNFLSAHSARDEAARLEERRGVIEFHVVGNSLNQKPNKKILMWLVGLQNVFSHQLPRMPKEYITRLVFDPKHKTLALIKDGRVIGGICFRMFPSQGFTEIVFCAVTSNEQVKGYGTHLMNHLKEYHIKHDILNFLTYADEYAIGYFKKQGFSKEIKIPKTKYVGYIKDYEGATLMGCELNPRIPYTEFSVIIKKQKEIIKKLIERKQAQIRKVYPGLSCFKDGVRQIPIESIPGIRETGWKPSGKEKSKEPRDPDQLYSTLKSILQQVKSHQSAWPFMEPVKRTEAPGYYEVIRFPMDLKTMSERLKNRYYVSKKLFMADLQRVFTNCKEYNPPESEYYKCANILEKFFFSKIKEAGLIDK

Target: Flag-c-MYC (UniProt P01106)
Assay: affinity purification with mass spectrometry; MIA PaCa-2 cells transfected with pCDNA3-2×Flag (empty vector) or pCDNA3-2×Flag-c-MYC; immunoprecipitation with anti-Flag resin; purified complex analysed by mass spectrometry

## PCAF (p300/CBP-associated Factor) (from UniProt Q92831 1-832)
  binding: binds
